The values below come from patent publication US8673943B2, “Fluorinated derivatives of deferiprone” (Apotex Technologies Inc., priority 2007, dated 2014).

For `Cn1cc(O)c(=O)cc1C(F)F` [Apo6719, 2-difluoromethyl-5-hydroxy-1-methyl-1H-pyridin-4-one], the “stability in pH 7.4 phosphate buffer and 0.01 M sodium hydroxide” value is on record as “stable”.
